PubChem BioAssay AID1159584, Peter MacCallum Cancer Centre, 2016

- Purpose: 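Genes whose loss is lethal only together with E-cadherin loss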 (primary screen)
- Cell system: human MCF10A breast epithelial cells, parental and CDH1-null
- Knock-down reagent: siRNA against human genes
- Detection: 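ATP luminescence (CellTiter-Glo) viability per line relative to mean mock wells over all plates, and the ratio of CDH1-null to parental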
- Reading the numbers: CDH1-null / parental viability ratio: higher = CDH1-null cells survive relatively better than parental
The whole screen tested about 18,000 reagents; shown is a random part of them. Further read-outs or replicates are left out here. No sequences are given here. Not given: the amount of reagent, the time to read-out.

Silencing of POPDC2 resulted in: CDH1-null / parental viability ratio 1.02. Depletion of SERPINB12 came out at: CDH1-null / parental viability ratio 1. ITPR3 scored CDH1-null / parental viability ratio 1.17. Depletion of MLC1 came out at: CDH1-null / parental viability ratio 1.46. Depletion of PRDM14 came out at: CDH1-null / parental viability ratio 0.82. After knock-down of MLF2, the record shows CDH1-null / parental viability ratio 1.14.

With knock-down of VPS37C, the screen gave CDH1-null / parental viability ratio 0.8. Against MTNR1B the deposit lists CDH1-null / parental viability ratio 0.75. HEXD gave CDH1-null / parental viability ratio 0.91. TMEM185A gave CDH1-null / parental viability ratio 0.96. Depletion of RSPRY1 resulted in: CDH1-null / parental viability ratio 0.92. ZNF503 gave CDH1-null / parental viability ratio 0.9.

With knock-down of SNX17, the screen gave CDH1-null / parental viability ratio 1.13. Against OR1L4 the deposit lists CDH1-null / parental viability ratio 0.76. RNF20 gave CDH1-null / parental viability ratio 0.86. ANTKMT scored CDH1-null / parental viability ratio 0.94. Against PAQR6, the values are CDH1-null / parental viability ratio 1.35. With knock-down of TBC1D1, the record shows CDH1-null / parental viability ratio 0.91.

For SHOC1 the deposit lists CDH1-null / parental viability ratio 1.13. PNCK gave CDH1-null / parental viability ratio 1. HASPIN gave CDH1-null / parental viability ratio 0.89. With knock-down of TNFSF12-TNFSF13, the screen gave CDH1-null / parental viability ratio 0.96. CEP350 scored CDH1-null / parental viability ratio 0.88. Silencing of SYT14P1 gave: CDH1-null / parental viability ratio 0.8.

Silencing of EFCC1 gave: CDH1-null / parental viability ratio 1.07. For FBXW2, the entry reads CDH1-null / parental viability ratio 0.95. Depletion of SPOPL came out at: CDH1-null / parental viability ratio 1.19. Knock-down of CBX1 came out at: CDH1-null / parental viability ratio 1.24. Against PPID the deposit lists CDH1-null / parental viability ratio 0.73. ARHGAP31 gave CDH1-null / parental viability ratio 0.86.

After knock-down of CLEC4A, the screen gave CDH1-null / parental viability ratio 0.74. For PSMA2 the deposit lists CDH1-null / parental viability ratio 1.5. TAS2R45 gave CDH1-null / parental viability ratio 0.74. Depletion of CYTL1 came out at: CDH1-null / parental viability ratio 1.02. For BRME1 the deposit lists CDH1-null / parental viability ratio 1.18.

Reformatted: 3 of the entries above
PSMA2
- CDH1-null / parental viability ratio: 1.5

TAS2R45
- CDH1-null / parental viability ratio: 0.74

CYTL1
- CDH1-null / parental viability ratio: 1.02
